Experimental findings from article PMC6433719 are described below.

No constants are given. Whether binding was seen depends on the method and setting. Binding can be weak; no strength is given.

Assay [1] addresses T1, AtPYL7 in pBDGAL4 (Arabidopsis thaliana) (UniProt Q1ECF1).
T1 sequence: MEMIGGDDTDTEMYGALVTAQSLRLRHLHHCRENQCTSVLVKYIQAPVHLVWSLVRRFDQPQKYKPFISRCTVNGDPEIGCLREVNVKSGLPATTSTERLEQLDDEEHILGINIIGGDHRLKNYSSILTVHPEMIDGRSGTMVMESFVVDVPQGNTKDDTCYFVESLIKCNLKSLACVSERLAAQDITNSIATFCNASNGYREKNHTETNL
Kind of assay: two-hybrid; PP2C fused to the GAL4 AD (prey), PYL fused to the GAL4 BD (bait), yeast AH109; growth on -W/-L/-H/-A without ABA, 3 days at 30°C.

Assay [2] has as its target T2, AtPYL12 in pBDGAL4 (Arabidopsis thaliana) (UniProt Q9FJ49).
T2 sequence: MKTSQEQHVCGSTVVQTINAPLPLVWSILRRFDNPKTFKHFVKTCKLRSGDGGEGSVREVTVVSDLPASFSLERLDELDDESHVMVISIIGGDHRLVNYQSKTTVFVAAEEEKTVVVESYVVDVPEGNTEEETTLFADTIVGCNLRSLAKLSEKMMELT
The assay is described as above.

Assay [3] addresses T3, AtPYL8 in pBDGAL4 (Arabidopsis thaliana) (UniProt Q9FGM1).
T3 sequence: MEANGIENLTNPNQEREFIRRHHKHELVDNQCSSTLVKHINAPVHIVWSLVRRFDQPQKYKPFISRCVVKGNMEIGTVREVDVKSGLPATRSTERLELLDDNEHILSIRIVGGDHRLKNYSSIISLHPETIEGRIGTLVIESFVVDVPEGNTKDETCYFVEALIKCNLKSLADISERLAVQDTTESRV
The description is as above.

Assay [4] deals with T4, AtPYL13 in pBDGAL4 (Arabidopsis thaliana) (UniProt Q9SN51).
T4 sequence: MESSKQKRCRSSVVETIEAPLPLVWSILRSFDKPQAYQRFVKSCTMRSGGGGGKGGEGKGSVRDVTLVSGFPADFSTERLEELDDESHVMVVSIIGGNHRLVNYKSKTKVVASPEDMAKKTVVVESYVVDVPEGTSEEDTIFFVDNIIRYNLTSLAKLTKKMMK
The assay is described as above.

The target in assay [5] is T5, AtPYL6 in pBDGAL4 (Arabidopsis thaliana) (UniProt Q8S8E3).
T5 sequence: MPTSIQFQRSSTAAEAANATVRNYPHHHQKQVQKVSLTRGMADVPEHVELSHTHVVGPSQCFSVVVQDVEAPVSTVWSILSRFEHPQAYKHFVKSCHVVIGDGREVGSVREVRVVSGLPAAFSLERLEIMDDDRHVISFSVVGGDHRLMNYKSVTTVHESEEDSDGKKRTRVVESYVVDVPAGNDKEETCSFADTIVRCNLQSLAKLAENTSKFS
The assay is described as above.

Assay [6] concerns the target T6, AtPYL11 in pBDGAL4 (Arabidopsis thaliana) (UniProt Q9FJ50).
T6 sequence: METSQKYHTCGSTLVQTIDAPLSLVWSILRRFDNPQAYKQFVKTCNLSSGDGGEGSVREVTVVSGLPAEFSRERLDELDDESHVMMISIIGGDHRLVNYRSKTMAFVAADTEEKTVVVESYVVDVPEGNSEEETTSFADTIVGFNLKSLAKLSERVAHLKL
The assay is described as above.

For assay [7], the target named is T7, AtPYL9 in pBDGAL4 (Arabidopsis thaliana) (UniProt Q84MC7).
T7 sequence: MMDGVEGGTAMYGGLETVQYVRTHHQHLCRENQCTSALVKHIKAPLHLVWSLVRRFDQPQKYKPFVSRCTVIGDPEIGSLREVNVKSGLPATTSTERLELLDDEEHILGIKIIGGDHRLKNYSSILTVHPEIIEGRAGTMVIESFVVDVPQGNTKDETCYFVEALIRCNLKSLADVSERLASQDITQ
The description is as above.

For assay [8], the target named is T8, AtSnRK2.6 cloned in pGBKT7 (Arabidopsis thaliana) (UniProt Q940H6).
T8 sequence: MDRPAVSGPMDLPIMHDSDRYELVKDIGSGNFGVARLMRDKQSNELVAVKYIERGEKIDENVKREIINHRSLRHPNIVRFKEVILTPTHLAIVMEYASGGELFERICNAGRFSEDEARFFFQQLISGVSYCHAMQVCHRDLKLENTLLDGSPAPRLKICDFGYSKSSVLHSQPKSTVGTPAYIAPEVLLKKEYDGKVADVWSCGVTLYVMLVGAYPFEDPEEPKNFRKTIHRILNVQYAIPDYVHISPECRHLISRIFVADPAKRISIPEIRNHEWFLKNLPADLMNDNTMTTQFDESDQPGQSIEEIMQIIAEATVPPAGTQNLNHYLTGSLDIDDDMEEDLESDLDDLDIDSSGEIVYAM
Nature of the assay: two-hybrid; PP2C fused to the GAL4 AD (prey), SnRK2 in pGBKT7 (bait), yeast AH109; growth on selective media -W/-L/-H/-A, 3 days at 30°C; ABA not mentioned for these panels (Figure 5D-F).

Assay [9] concerns the target T1, AtPYL7 in pBDGAL4 (Arabidopsis thaliana). Nature of the assay: two-hybrid; PP2C fused to the GAL4 AD (prey), PYL fused to the GAL4 BD (bait), yeast AH109; growth on -W/-L/-H/-A with 50 μM ABA, 3 days at 30°C.
Assay [10] has as its target T2, AtPYL12 in pBDGAL4 (Arabidopsis thaliana). Described as above.
For assay [11], the target named is T3, AtPYL8 in pBDGAL4 (Arabidopsis thaliana). Described as above.
The target in assay [12] is T4, AtPYL13 in pBDGAL4 (Arabidopsis thaliana). The description is as above.
Assay [13] addresses T5, AtPYL6 in pBDGAL4 (Arabidopsis thaliana). Described as above.
Assay [14] concerns the target T6, AtPYL11 in pBDGAL4 (Arabidopsis thaliana). The assay is described as above.
Assay [15] has as its target T7, AtPYL9 in pBDGAL4 (Arabidopsis thaliana). The description is as above.

On to “CaHAI fused to the GAL4 activation domain (Capsicum annuum) (enzyme)”, for which the binding result is on record as “binds” in [1]; “binds” in assay [2]; “binds” in assay [3]; “binds” in [4]; “binds weakly” in assay [5]; “binds weakly” in [6]. For the same substance, the binding entry in [7], in assay [8], in [9], in assay [10], in assay [11] and in assay [12] was “binds” throughout. The binding entry in assay [13], in assay [14] and in assay [15] was “binds” throughout.
